These are yes or no findings as the source states them, for the method shown. In cells and extracts the contact can be indirect. Some entries that bind do so weakly or less than the wild type.

By UniProt entry, the sequences of proteins in these tests, tags left out.
UniProt P10275: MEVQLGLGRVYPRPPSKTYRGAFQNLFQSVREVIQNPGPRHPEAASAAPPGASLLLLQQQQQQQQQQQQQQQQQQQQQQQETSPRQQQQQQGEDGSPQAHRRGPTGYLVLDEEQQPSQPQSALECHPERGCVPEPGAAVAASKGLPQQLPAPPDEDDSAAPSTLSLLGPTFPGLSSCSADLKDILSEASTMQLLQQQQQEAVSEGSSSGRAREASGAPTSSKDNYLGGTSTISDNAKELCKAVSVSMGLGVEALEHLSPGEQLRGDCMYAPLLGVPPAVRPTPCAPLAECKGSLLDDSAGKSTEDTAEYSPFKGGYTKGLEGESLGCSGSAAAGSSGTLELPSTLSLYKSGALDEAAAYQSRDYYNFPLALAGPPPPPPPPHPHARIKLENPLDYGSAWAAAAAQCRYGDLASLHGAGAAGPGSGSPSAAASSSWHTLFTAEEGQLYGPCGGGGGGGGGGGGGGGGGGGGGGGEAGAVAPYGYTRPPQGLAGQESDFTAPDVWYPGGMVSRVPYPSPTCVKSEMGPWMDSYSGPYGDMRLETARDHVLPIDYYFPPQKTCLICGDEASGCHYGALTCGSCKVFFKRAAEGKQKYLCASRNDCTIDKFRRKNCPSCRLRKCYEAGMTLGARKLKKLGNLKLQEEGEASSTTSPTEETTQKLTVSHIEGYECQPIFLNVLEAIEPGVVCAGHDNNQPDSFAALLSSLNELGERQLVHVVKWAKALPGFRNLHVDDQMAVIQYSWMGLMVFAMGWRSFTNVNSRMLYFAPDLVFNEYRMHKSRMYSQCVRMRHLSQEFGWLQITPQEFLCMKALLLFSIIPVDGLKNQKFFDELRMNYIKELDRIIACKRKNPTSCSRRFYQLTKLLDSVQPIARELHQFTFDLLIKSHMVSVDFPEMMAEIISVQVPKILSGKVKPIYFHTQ

This assay has as its target androgen receptor (human (endogenous in LNCaP)) (UniProt P10275). Briefly: co-IP; endogenous proteins of LNCaP cells; cells treated with vehicle or GV1001 (10 uM) for 24 h; reciprocal immunoprecipitation and immunoblotting. For orientation: A western blot detects proteins with antibodies after separation by electrophoresis.

For “NK3 Homeobox 1 (from UniProt Q99801 1-234)”, the binding result is listed as “binds”.

The record behind these values is paper PMC8574053.
